According to the supplement of paper PMC10849652:
This is one part of the list.

Amino acid sequences for entries named in this document (tags omitted). A change or cut given only in a name is not applied to a line headed by its entry.
UniProt Q9H0R8, whole entry, looked up: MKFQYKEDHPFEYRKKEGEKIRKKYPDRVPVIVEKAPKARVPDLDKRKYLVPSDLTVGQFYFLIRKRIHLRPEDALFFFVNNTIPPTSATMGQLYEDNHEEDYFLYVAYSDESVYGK
UniProt Q13283, whole entry, looked up: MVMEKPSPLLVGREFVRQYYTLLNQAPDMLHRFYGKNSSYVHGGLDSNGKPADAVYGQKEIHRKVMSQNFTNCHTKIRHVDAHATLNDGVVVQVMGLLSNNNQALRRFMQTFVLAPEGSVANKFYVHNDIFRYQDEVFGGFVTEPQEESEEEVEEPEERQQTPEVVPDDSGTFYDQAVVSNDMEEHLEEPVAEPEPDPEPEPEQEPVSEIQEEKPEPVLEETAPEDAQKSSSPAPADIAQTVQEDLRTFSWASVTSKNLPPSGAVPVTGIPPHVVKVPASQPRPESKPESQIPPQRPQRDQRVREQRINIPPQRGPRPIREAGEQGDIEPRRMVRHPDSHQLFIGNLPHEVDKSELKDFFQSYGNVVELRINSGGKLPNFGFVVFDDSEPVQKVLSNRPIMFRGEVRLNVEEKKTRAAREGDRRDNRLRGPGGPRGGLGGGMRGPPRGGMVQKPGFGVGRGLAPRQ
UniProt Q96C23: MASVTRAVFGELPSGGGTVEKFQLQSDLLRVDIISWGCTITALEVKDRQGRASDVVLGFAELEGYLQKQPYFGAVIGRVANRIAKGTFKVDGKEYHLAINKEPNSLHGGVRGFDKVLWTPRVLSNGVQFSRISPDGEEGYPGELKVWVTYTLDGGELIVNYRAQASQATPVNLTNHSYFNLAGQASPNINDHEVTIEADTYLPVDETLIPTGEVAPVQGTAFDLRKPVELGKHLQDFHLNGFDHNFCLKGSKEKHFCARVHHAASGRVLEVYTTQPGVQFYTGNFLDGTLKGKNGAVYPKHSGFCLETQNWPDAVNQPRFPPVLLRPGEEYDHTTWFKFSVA
UniProt Q96I24: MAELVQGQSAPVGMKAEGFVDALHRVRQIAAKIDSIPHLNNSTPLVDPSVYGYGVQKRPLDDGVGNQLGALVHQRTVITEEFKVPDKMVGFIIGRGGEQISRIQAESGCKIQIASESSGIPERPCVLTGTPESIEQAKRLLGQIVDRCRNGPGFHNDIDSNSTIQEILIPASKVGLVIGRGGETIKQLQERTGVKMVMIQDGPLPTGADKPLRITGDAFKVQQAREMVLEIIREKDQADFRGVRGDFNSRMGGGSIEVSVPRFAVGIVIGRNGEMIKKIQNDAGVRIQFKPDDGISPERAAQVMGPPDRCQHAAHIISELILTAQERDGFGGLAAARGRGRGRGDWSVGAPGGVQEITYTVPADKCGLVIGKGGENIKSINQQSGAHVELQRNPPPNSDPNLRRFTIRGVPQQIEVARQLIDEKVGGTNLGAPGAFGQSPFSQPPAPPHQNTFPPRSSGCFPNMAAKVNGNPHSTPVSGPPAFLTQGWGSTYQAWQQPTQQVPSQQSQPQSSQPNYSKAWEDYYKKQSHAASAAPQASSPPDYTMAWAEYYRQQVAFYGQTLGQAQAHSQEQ
UniProt Q9UQC2, whole entry, looked up: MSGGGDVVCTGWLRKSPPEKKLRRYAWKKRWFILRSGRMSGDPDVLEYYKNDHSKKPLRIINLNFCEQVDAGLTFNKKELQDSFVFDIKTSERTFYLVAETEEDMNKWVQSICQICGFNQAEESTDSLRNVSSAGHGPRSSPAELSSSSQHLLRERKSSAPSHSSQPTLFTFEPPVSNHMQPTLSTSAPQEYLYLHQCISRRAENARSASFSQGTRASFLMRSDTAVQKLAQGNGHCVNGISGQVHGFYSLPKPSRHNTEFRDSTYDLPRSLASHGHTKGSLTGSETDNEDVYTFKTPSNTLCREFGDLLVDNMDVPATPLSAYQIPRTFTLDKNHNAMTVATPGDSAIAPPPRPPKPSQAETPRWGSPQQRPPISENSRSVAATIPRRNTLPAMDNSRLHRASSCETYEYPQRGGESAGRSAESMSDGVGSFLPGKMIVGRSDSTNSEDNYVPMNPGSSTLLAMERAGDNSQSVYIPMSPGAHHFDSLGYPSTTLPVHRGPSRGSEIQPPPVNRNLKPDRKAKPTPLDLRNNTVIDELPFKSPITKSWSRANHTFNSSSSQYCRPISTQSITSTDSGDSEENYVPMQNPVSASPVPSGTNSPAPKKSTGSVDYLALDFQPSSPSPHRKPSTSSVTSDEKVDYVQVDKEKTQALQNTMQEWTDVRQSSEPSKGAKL
UniProt Q99988: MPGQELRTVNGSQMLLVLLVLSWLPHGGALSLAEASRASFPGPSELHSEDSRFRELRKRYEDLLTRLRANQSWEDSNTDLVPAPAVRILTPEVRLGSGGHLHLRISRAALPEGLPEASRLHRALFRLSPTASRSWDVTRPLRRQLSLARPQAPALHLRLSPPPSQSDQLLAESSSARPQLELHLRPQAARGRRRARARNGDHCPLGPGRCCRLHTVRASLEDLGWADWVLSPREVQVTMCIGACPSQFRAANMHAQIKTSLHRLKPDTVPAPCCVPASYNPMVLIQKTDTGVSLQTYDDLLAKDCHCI
UniProt Q9UN86: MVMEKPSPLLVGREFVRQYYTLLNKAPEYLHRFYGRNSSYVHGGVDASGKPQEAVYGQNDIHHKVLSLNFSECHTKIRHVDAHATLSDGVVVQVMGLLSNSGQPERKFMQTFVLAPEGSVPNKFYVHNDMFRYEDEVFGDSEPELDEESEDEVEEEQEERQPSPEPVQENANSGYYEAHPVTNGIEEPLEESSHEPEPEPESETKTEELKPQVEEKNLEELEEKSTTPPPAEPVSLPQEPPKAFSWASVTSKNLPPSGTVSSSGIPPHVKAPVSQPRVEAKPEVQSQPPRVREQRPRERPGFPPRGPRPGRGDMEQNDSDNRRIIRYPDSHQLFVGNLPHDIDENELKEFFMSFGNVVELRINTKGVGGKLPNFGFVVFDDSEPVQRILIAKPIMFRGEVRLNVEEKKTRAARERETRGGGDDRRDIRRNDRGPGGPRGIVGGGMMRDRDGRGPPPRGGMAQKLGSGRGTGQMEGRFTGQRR
UniProt Q9BYC5: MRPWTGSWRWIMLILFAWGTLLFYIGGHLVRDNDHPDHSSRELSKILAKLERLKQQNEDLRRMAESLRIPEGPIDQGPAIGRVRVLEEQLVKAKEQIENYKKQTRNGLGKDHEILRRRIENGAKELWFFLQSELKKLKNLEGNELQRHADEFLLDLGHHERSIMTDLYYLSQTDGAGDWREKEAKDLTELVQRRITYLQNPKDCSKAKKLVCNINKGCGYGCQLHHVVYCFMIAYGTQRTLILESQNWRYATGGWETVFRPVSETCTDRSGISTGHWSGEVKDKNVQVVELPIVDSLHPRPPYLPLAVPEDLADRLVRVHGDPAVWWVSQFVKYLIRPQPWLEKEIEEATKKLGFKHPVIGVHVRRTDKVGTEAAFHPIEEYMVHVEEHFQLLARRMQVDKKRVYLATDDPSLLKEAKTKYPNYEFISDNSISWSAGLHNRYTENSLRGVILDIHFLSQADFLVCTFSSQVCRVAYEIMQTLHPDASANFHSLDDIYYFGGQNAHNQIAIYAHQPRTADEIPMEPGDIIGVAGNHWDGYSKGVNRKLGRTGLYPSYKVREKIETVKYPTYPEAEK
UniProt Q04446: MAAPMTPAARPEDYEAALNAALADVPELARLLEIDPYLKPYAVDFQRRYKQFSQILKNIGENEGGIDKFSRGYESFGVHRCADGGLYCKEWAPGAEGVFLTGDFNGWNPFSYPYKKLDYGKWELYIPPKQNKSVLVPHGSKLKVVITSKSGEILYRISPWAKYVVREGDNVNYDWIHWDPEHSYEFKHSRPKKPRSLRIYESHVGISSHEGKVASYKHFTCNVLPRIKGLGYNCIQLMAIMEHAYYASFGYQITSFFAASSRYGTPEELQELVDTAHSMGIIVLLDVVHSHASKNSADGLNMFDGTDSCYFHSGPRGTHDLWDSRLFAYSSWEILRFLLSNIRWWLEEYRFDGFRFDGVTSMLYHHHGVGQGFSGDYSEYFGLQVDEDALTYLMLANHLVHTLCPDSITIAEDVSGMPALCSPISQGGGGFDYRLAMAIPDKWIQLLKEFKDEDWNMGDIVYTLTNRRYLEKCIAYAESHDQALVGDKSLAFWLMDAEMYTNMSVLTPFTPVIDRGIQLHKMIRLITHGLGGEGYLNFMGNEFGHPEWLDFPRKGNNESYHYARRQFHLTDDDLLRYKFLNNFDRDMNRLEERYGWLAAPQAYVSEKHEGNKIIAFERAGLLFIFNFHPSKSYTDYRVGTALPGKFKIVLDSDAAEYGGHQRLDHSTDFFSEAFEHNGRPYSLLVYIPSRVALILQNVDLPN
UniProt Q06210: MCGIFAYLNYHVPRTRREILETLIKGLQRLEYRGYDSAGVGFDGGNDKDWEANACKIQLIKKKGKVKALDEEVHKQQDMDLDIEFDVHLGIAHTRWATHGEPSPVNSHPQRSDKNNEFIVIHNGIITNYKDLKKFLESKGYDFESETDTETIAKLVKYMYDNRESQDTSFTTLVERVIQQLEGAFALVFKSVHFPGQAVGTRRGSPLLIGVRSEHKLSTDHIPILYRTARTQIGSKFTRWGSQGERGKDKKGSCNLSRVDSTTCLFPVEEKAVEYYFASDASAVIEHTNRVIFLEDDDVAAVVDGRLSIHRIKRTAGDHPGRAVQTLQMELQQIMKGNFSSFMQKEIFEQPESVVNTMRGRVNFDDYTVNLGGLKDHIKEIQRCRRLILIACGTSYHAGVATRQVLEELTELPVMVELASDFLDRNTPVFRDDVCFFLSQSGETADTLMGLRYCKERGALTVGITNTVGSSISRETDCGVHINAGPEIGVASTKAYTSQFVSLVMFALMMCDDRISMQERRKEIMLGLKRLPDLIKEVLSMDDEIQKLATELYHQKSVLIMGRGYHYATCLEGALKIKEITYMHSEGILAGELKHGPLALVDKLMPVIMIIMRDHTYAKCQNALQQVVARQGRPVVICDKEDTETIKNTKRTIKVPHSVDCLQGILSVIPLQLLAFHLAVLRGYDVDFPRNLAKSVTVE
UniProt P19440: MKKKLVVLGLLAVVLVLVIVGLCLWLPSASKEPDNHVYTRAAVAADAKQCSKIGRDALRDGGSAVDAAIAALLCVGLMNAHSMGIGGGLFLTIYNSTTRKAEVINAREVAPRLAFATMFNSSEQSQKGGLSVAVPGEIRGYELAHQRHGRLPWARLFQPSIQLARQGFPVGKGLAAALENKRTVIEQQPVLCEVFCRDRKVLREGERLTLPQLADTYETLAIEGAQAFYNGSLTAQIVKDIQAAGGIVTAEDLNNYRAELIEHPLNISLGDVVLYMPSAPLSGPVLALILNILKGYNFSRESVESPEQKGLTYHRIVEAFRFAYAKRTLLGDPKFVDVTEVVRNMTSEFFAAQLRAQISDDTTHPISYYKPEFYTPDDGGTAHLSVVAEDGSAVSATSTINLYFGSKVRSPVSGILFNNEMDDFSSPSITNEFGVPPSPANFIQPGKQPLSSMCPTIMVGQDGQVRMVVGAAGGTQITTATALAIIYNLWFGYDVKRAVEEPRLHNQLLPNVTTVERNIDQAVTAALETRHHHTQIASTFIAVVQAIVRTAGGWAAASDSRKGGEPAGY
UniProt Q8NCL4: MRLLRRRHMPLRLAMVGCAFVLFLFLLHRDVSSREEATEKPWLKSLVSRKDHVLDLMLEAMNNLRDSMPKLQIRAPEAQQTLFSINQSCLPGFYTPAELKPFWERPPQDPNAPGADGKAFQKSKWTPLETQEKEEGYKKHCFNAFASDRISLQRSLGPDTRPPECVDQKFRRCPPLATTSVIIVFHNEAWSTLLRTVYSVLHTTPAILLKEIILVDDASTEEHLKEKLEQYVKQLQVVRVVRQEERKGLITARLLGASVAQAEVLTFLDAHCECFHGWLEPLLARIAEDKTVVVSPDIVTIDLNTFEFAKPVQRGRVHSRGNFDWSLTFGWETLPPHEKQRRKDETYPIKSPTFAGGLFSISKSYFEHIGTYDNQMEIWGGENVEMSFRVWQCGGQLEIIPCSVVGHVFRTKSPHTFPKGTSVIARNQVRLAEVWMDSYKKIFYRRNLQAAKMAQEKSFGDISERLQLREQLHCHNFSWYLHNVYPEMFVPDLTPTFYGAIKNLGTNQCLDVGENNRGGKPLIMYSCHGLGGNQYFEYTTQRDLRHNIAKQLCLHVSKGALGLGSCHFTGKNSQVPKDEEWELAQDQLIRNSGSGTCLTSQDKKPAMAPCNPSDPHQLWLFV
UniProt O14893: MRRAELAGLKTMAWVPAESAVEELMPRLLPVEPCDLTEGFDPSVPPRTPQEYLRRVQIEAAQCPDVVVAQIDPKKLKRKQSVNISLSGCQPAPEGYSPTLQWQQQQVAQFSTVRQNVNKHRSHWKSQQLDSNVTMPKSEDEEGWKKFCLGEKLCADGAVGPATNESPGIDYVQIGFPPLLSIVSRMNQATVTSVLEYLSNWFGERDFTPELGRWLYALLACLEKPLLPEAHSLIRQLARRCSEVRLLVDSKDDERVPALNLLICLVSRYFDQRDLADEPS
UniProt Q96DB9: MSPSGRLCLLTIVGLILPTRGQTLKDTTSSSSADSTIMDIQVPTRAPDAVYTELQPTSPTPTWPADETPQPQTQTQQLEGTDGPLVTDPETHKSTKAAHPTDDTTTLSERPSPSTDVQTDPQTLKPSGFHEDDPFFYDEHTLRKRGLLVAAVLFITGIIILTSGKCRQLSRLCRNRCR

Tests used:
Assay in all cases: log2 fold change, soluble protein after heating vs DMSO (PISA); higher = thermal stabilisation; K562 cells, 10 uM, 30 min; active = over 0.2 and 3.5 SD of the protein, either way, in both replicates (recomputed)
[1] = compound: COC1=CC=C(C=C1)CN2C=CC3=C2C=C(C=C3)C(=O)NO
In short: (§1)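 K562 cells (2×10^6 cells/mL) were treated with 10 μM compound for 30 min, and aliquots were heated for 3 min over 48°C-58°C. Pooled aliquots were extracted in PBS with 0.5% NP-40 at 4°C, and the supernatant after 21,000xg for 90 min was measured by TMTpro 16plex LC-MS/MS with channel sums equalised. Reported thermal stability, relative to control samples and from duplicates, is a log2 fold change.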

[2] = compound: CON(C)C(=O)N1N=C(c2cc(F)ccc2F)S[C@@]1(CCCN)c1ccccc1 [filanesib]
In short: as §1

[3] = compound: CO[C@H]1C[C@@H]2CC[C@@H](C)[C@@](O)(O2)C(=O)C(=O)N2CCCC[C@H]2C(=O)O[C@H]([C@H](C)C[C@@H]2CC[C@H](n3cnnn3)[C@H](OC)C2)CC(=O)[C@H](C)/C=C(\C)[C@@H](O)[C@@H](OC)C(=O)[C@H](C)C[C@H](C)/C=C/C=C/C=C/1C [zotarolimus]
In short: as §1

[4] = compound: COc1cc(C(=O)O)ccc1NC(=O)[C@@H]1N[C@@H](CC(C)(C)C)[C@](C#N)(c2ccc(Cl)cc2F)[C@H]1c1cccc(Cl)c1F [idasanutlin]
In short: as §1

[5] = compound: COc1cc(Nc2ncc3c(n2)-c2ccc(Cl)cc2C(c2c(F)cccc2OC)=NC3)ccc1C(=O)O [alisertib]
In short: as §1

[6] = compound: COc1cc2nc(-c3cc(F)ccc3O)nc(N[C@@H]3CNC[C@H]3C(C)(C)O)c2cc1OC
In short: as §1

[7] = compound: COc1cc2ncnc(Nc3ccc(F)c(Cl)c3)c2cc1OCCCN1CCOCC1 [gefitinib]
In short: as §1

[8] = compound: COc1cccc2cc(-c3nc([C@H]4CC[C@H](C(=O)O)CC4)n4ncnc(N)c34)[nH]c12
In short: as §1

[9] = compound: CS(=O)(=O)CCNCc1ccc(-c2ccc3ncnc(Nc4ccc(OCc5cccc(F)c5)c(Cl)c4)c3c2)o1 [lapatinib]
In short: as §1

[10] = compound: CS(=O)(=O)N1CCN(Cc2cc3nc(-c4cccc5[nH]ncc45)nc(N4CCOCC4)c3s2)CC1 [pictilisib]
In short: as §1

Target	log2 fold change [1]	log2 fold change [2]	log2 fold change [3]	log2 fold change [4]	log2 fold change [5]	log2 fold change [6]	log2 fold change [7]	log2 fold change [8]	log2 fold change [9]	log2 fold change [10]
GABARAPL1 isoform 2 (UniProt Q9H0R8)	inactive: 0.053	inactive: -0.054	inactive: 0.024	inactive: -0.112	inactive: 0.024	inactive: 0.007	inactive: 0.021	inactive: -0.01	inactive: -0.026	inactive: 0.115
GET4 (UniProt Q7L5D6)	inactive: -0.005	inactive: 0.017	inactive: -0.007	inactive: 0.12	inactive: 0.008	inactive: -0.008	inactive: 0.001	inactive: -0.048	inactive: 0.025	inactive: 0.093
GAMT (UniProt Q14353)	inactive: 0.129	inactive: 0.037	inactive: 0.181	inactive: 0.212	inactive: -0.161	inactive: 0.075	inactive: 0.039	inactive: 0.069	inactive: -0.251	inactive: 0.124
GALNT11 (UniProt Q8NCW6)	inactive: -0.012	inactive: -0.028	inactive: -0.019	inactive: -0.042	inactive: 0	inactive: 0.052	inactive: 0.013	inactive: 0.062	inactive: -0.011	inactive: 0.026
FTL (UniProt P02792)	inactive: -0.013	inactive: 0.251	inactive: 0.053	inactive: 0.211	inactive: -0.039	inactive: -0.202	inactive: -0.097	inactive: -0.05	inactive: 0	inactive: 0.003
G3BP1 (UniProt Q13283)	inactive: -0.013	inactive: 0.281	inactive: 0.043	inactive: 0.133	inactive: -0.054	inactive: -0.058	inactive: -0.033	inactive: -0.05	inactive: 0.063	inactive: -0.035
GALM (UniProt Q96C23)	inactive: -0.019	inactive: -0.081	inactive: 0.001	inactive: -0.068	inactive: -0.114	inactive: 0.006	inactive: 0.06	inactive: -0.044	inactive: -0.033	inactive: 0.058
FUBP3 (UniProt Q96I24)	inactive: 0.129	inactive: 0.055	inactive: -0.072	inactive: 0.049	inactive: 0.034	inactive: 0.165	inactive: -0.049	inactive: 0.009	inactive: 0.006	inactive: -0.062
GCN1 (UniProt Q92616)	inactive: -0.02	inactive: 0.535	inactive: 0.135	inactive: 0.283	inactive: -0.111	inactive: 0.045	inactive: -0.023	inactive: -0.408	inactive: 0.061	inactive: -0.115
GAB2 (UniProt Q9UQC2)	inactive: 0.044	inactive: -0.053	inactive: -0.145	inactive: 0.084	inactive: 0.007	inactive: -0.526	–	inactive: -0.236	inactive: 0.033	inactive: -0.348
GDPD1 (UniProt Q8N9F7)	active: 0.353	inactive: 0.056	inactive: 0.13	inactive: 0.156	inactive: -0.068	inactive: 0.208	inactive: 0.067	inactive: 0.021	inactive: 0.04	inactive: 0.085
GDI2 (UniProt P50395)	inactive: -0.014	inactive: -0.031	inactive: 0.028	inactive: -0.019	inactive: -0.002	inactive: -0.009	inactive: 0	inactive: 0.01	inactive: -0.003	inactive: -0.059
FYB1 isoform 3 (UniProt O15117)	inactive: 0.001	inactive: 0.06	–	inactive: -0.106	inactive: -0.035	inactive: 0.026	inactive: 0.103	inactive: 0.134	inactive: 0.068	inactive: 0.108
GDF15 (UniProt Q99988)	inactive: -0.063	–	inactive: -0.042	inactive: 0.023	inactive: -0.222	inactive: -0.043	inactive: 0.075	inactive: -0.247	inactive: 0.038	–
GALNT7 (UniProt H0YAH3)	inactive: 0.043	–	inactive: 0.298	–	–	–	–	–	–	–
G3BP2 (UniProt Q9UN86)	inactive: 0	inactive: 0.293	inactive: 0.014	inactive: 0.219	inactive: -0.023	inactive: -0.085	inactive: -0.033	inactive: -0.131	inactive: 0.12	inactive: -0.212
FUT8 (UniProt Q9BYC5)	inactive: -0.156	inactive: -0.043	inactive: -0.019	inactive: -0.066	inactive: 0.022	–	inactive: 0.084	inactive: -0.03	–	inactive: -0.032
FPGS (UniProt Q05932)	inactive: -0.073	inactive: 0.026	inactive: 0.151	–	inactive: -0.035	inactive: 0.183	–	inactive: -0.077	inactive: -0.102	inactive: -0.005
GBE1 (UniProt Q04446)	inactive: 0.048	–	inactive: 0.045	inactive: 0.002	inactive: 0.019	inactive: -0.168	–	inactive: -0.102	inactive: -0.022	–
GFPT1 (UniProt Q06210)	inactive: 0.023	inactive: -0.072	inactive: 0.015	inactive: -0.012	inactive: -0.027	inactive: -0.024	inactive: -0.005	inactive: 0.042	inactive: 0.026	inactive: 0.063
GGT1 (UniProt P19440)	inactive: -0.091	inactive: 0.051	–	inactive: 0.037	inactive: 0.01	inactive: -0.176	–	inactive: 0.117	inactive: -0.045	inactive: 0.112
GALNT6 (UniProt Q8NCL4)	inactive: 0.086	inactive: 0.018	–	inactive: 0.036	inactive: 0.212	inactive: 0.02	inactive: -0.001	inactive: 0.19	inactive: 0.043	–
GDAP2 (UniProt Q9NXN4)	inactive: -0.133	inactive: 0.213	–	inactive: 0.133	inactive: -0.033	–	inactive: 0.472	inactive: 0.066	–	–
GALNT12 (UniProt Q8IXK2)	inactive: -0.014	inactive: 0.028	inactive: 0.008	inactive: 0.011	inactive: 0.247	inactive: -0.074	–	inactive: -0.106	inactive: -0.006	inactive: -0.04
GEMIN2 (UniProt O14893)	inactive: -0.099	inactive: 0.132	inactive: -0.093	inactive: 0.034	inactive: -0.017	inactive: -0.045	inactive: 0.032	inactive: -0.029	inactive: 0.034	inactive: 0.016
FOXJ3 (UniProt Q9UPW0)	inactive: 0.01	–	inactive: 0.05	inactive: -0.028	inactive: 0.269	inactive: -0.06	inactive: 0.045	inactive: 0.067	inactive: 0.12	–
GGT2 isoform 3 (UniProt P36268)	inactive: -0.023	inactive: 0.054	inactive: -0.035	inactive: 0.108	inactive: -0.111	inactive: 0.032	inactive: 0.032	inactive: 0.052	inactive: 0.025	inactive: 0.034
FXYD5 (UniProt Q96DB9)	inactive: -0.091	inactive: 0.522	inactive: -0.007	inactive: 0.034	–	inactive: -0.003	–	–	inactive: -0.264	inactive: 0.504
GABPB1 (UniProt Q06547)	inactive: 0.002	inactive: -0.173	–	–	–	inactive: -0.021	–	–	inactive: 0.007	–

Single values from the results shown:
Value of GALNT7 (UniProt H0YAH3) under log2 fold change [1]: inactive: 0.043
Value of FUT8 (UniProt Q9BYC5) under log2 fold change [7]: inactive: 0.084

Random excerpt: two entries already listed
Target	log2 fold change [1]	log2 fold change [2]	log2 fold change [3]	log2 fold change [4]	log2 fold change [5]	log2 fold change [6]	log2 fold change [7]	log2 fold change [8]	log2 fold change [9]	log2 fold change [10]
GDI2 (UniProt P50395)	inactive: -0.014	inactive: -0.031	inactive: 0.028	inactive: -0.019	inactive: -0.002	inactive: -0.009	inactive: 0	inactive: 0.01	inactive: -0.003	inactive: -0.059
FUT8 (UniProt Q9BYC5)	inactive: -0.156	inactive: -0.043	inactive: -0.019	inactive: -0.066	inactive: 0.022	–	inactive: 0.084	inactive: -0.03	–	inactive: -0.032
